Read-outs that look alike come from different tables or passages of the source.
Legend:
[1] = system: Polyamine pools in L1210 cells; assay: Effect on polyamine pools in L1210 cells; type: cell-based
[2] = system: Polyamine pools in L1210 cells; conditions: cited from earlier work

## CCNCCCNCCC(N)CNCCCNCC (centres unmarked) [6-NH2-DESPM, 6 amino-N^1,N^12-diethylspermine]
[1]; 10 µM
  analogue amount: 3.52 ± 0.73 nmol/10^6 cells
[1]; 50 µM
  analogue amount: 3.10 ± 0.12 nmol/10^6 cells

## CCNCCCNCCCCNCCCNCC [DESPM]
[2]; 30 µM
  analogue amount: 0.4 nmol/10^6 cells
[2]; 150 µM
  analogue amount: 1.13 nmol/10^6 cells

## FC(F)(F)CNCCCNCCCCNCCCNCC(F)(F)F [FDESPM]
[2]; 100 µM
  analogue amount: <0.02 nmol/10^6 cells
